# Over roughly 1,600 compounds, “Hit score” has its median near 0.13; the highest 2% begin near 0.46. This is one part of the list.
# Tested on: SARS-CoV-2
# Assay: Antiviral activity against SARS-CoV-2 (USA-WA1/2020 strain) measured by imaging in HRCE cells at MOI 0.4 after 96 hrs (reported as hit score from 0-1 for on-disease vs off-disease activity: scores >0.6 considered hits)
# Assay type: functional, Homo sapiens
row,SMILES,Hit score
1,Cc1c(Cl)cccc1Nc1ncccc1C(=O)O [CLONIXIN],0.1557
2,Cc1nc(Nc2ncc(C(=O)Nc3c(C)cccc3Cl)s2)cc(N2CCN(CCO)CC2)n1.O [DASATINIB],-0.4014
3,Cc1ccc(/C(=C\CN2CCCC2)c2ccccn2)cc1 [TRIPROLIDINE],0.01384
4,CSCC[C@H](N)C(=O)O [METHIONINE],0.04747
5,CC(C)(C)NCC(O)c1ccccc1Cl (stereo unspecified) [TULOBUTEROL],-0.01366
6,C[C@H]1[C@H](NC(=O)/C(=N\OC(C)(C)C(=O)O)c2csc(N)n2)C(=O)N1S(=O)(=O)O [AZTREONAM],0.135
7,CNCCC=C1c2ccccc2CCc2ccccc21 [NORTRIPTYLINE],0.2268
8,CN(N=O)C(=O)N[C@@H](C=O)[C@@H](O)[C@H](O)[C@H](O)CO [STREPTOZOCIN],0.07116
9,CCc1cc(C(N)=S)ccn1 [ETHIONAMIDE],0.1784
10,CC(=O)Nc1c(I)c(NC(C)=O)c(I)c(C(=O)O)c1I [DIATRIZOIC ACID],-0.01268
11,CCCC(=O)O[C@]1(C(=O)CO)CC[C@H]2[C@@H]3CCC4=CC(=O)CC[C@]4(C)[C@H]3[C@@H](O)C[C@@]21C [HYDROCORTISONE BUTYRATE],-0.05198
12,NC(=O)c1ncn([C@@H]2O[C@H](CO)[C@@H](O)[C@H]2O)c1O [MIZORIBINE],0.1019
13,Cc1cn([C@@H]2C[C@@H](O)[C@H](CO)O2)c(=O)[nH]c1=O [TELBIVUDINE],0.09197
14,CN(C)C(=S)SSC(=S)N(C)C [THIRAM],0.2497
15,CC(C)(C)NCC(O)CSc1nc(-c2ccc(C(N)=O)s2)cs1 (stereo unspecified) [AROTINOLOL],0.3775
16,CCOc1cc2ncc(C#N)c(Nc3ccc(OCc4ccccn4)c(Cl)c3)c2cc1NC(=O)/C=C/CN(C)C [NERATINIB],0.08739
17,CN1CCN(C(c2ccccc2)c2ccc(Cl)cc2)CC1 (stereo unspecified) [CHLORCYCLIZINE],0.05757
18,CC(C)C[C@H](NC(=O)[C@@H](O)[C@H](N)Cc1ccccc1)C(=O)O [UBENIMEX],0.1422
19,CNC(=C[N+](=O)[O-])NCCSCc1ccc(CN(C)C)o1 [RANITIDINE],0.2229
20,CC(N)Cc1cccc(O)c1 (stereo unspecified),0.2051
21,COC(=O)C[C@](O)(CCC(C)(C)O)C(=O)O[C@@H]1C(OC)=C[C@]23CCCN2CCc2cc4c(cc2[C@H]13)OCO4 [HARRINGTONINE],0.07403

# Numbers 15 to 17, quoted:
row,SMILES,Hit score
15,CC(C)(C)NCC(O)CSc1nc(-c2ccc(C(N)=O)s2)cs1 (stereo unspecified) [AROTINOLOL],0.3775
16,CCOc1cc2ncc(C#N)c(Nc3ccc(OCc4ccccn4)c(Cl)c3)c2cc1NC(=O)/C=C/CN(C)C [NERATINIB],0.08739
17,CN1CCN(C(c2ccccc2)c2ccc(Cl)cc2)CC1 (stereo unspecified) [CHLORCYCLIZINE],0.05757

# Source: ChEMBL document CHEMBL4303122, “Identification of potential treatments for COVID-19 through artificial intelligence-enabled phenomic analysis of human cells infected with SARS-CoV-2” (2020)
